From article PMC12418378 come the findings set out here.

The chains behind the UniProt entries cited, without tags or fusion partners.
UniProt O60016, whole entry R85Q/K87Q/K94Q/R98Q/R101Q/R104Q: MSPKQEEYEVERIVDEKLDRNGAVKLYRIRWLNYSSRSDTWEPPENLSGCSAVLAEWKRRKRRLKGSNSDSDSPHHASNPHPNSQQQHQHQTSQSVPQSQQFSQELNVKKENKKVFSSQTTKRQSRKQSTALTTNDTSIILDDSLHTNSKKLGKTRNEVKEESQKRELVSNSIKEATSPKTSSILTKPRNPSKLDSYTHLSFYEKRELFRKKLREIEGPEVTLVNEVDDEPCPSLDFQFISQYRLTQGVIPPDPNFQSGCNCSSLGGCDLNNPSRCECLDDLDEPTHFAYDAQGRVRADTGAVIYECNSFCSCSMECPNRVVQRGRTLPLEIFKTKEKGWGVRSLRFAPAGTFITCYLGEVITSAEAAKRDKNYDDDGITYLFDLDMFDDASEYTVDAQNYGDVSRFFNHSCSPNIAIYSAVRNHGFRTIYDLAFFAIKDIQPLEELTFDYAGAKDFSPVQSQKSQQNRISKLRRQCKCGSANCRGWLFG
UniProt O60016, whole entry K109Q/K110Q/K113Q/K114Q/K122Q/R123Q/R126Q/K127Q: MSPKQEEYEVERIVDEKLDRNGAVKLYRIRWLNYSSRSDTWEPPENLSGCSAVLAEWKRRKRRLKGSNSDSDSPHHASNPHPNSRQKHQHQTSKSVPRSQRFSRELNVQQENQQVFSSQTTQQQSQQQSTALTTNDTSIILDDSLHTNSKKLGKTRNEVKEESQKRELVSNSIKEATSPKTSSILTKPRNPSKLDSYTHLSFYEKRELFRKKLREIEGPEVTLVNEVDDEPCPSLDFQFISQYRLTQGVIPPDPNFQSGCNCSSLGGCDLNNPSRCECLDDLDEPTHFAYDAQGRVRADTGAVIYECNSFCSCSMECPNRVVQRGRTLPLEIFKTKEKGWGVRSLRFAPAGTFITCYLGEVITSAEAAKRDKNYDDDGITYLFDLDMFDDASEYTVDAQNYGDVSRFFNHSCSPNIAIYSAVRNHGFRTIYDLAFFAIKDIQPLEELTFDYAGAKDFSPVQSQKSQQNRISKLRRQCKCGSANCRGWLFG

The target of data set [1] is Clr4 Mut1 (block B K/R>Q) R85Q,K87Q,K94Q,R98Q,R101Q,R104Q (Schizosaccharomyces pombe) (UniProt O60016). The data set can be described thus: EMSA. To be noted: EMSA: 20 mM Tris-HCl pH 7.5, 1 mM DTT, 0.1 mg/ml BSA; RNA on ice 30 min; DNA and nucleosomes 37 C 15 min; 5% native PAGE, 0.5x TBE; recombinant protein; protein details: His-SUMO removed by Ulp1; label: none (SYBR Gold stain); probe letters rebuilt from the primers and the genome. In general terms: A gel shift assay detects complexes by their altered migration in electrophoresis.

The target in data set [2] is Clr4 Mut2 (block C K/R>Q) K109Q,K110Q,K113Q,K114Q,K122Q,R123Q,R126Q,K127Q (Schizosaccharomyces pombe) (UniProt O60016). The data set can be described thus: EMSA. The settings on record: EMSA: 20 mM Tris-HCl pH 7.5, 1 mM DTT, 0.1 mg/ml BSA; RNA on ice 30 min; DNA and nucleosomes 37 C 15 min; 5% native PAGE, 0.5x TBE; recombinant protein; residues 1-490; protein details: His-SUMO removed by Ulp1; label: none (SYBR Gold stain); probe letters rebuilt from the primers and the genome.

A weaker result is weaker than the reference pair of the same experiment.

As for “GGGUACCUUUGGGACGUGGUCUCUUGCUUUUGGCUGAAAUGUCUUCCAAAGGCUCUUUGGCUACUGGUUCCUACACAGAGAAAACCUUAGAAUGGUUUGAGAAGCAUACCGAUUUUUGCUUUGGCUUUAUAGCUGGUCGUCGAUUUCCUAACCUUCAAAGCGACUACAUAACUAUGUCCCCUGGUAUCGGCUUGGAUGUUAAAGGAGACGGGCUGGGACAGCAAUAUCGUACUCCUGAAGAAGUGAUUGUAAACUGCGGUAGCGAUAUCAUCAUUGUUGGUCGUGGAGUCUAUGGAGCUGGUCG [ura4+ RNA, 304 nt]”, the binding result in data set [1] and in data set [2] was “binds more weakly” each time.

On to “GGGAGCCUCAAGUGACUGCAUUAAAGCAUAAUACCGAAGCACUGACAUAACAGAGAGGUUCAGAAAGGAAUUUAAAGAUUGACUUUUUCGACAAACUUCAUGUUACAAGUCUUAUCGUUUGUGUUUAUAAAUCAUCAGCCUCUCUCUAUAUCUCUAUAUCUCUAUAUAUCAGAUAUAAAGAUGCAAGUUUUGAAGUAGACAUUCCGCACAAAGUCUAGUACACCAUGUCUCUUGUGCUCAGGCUGGUUGUCCUGCAAAAAUGUACAACAGGCAAAUGGAUGUUUCAUCAAAGAUGGACUCCUUUGUCUCAUACUUAUUGAUGGCGAAGCUAGAUCCGUUAUCAUCUUGAGAAAACACAUCGUUGUCUUCAGAGUAGCCC [pericentromeric repeat RNA, 379 nt]”, for which the binding result in data set [1] and in data set [2] was “binds more weakly” in each case.
